Source: PubChem BioAssay AID1224830 (NIAID, 2016)
The whole screen tested about 18,000 reagents; shown is an unselected part. About 2,900 of them (16%) count as active. 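Calls are made per well; low scores hint the gene aids the LPS response, high scores that it dampens it.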 Repeated entries: four replicate wells of each siRNA pool.

- Assay: 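Genes whose knock-down alters the TNF-alpha reporter response to LPS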 (primary screen)
- System: human THP-1 monocytic leukaemia cells, TNF dual-luciferase reporter clone, PMA-differentiated to macrophage-like cells
- Knock-down reagent: siRNA pool against human genes, 50 nM
- Time to read-out: LPS for 4 h, given about 3 days after siRNA transfection
- Treatment: bacterial LPS (TLR4 ligand), 10 ng/ml
- Detection: 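Ratio of firefly to renilla light, scaled to the plate median and expressed as a robust z-score per replicate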
- Reading the numbers: TNF reporter robust z-score: higher = stronger TNF reporter response to LPS
- Active means: 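a well is active when its z-score exceeds 2.8 or falls below -1.5; control wells carry no call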

| gene knocked down | TNF reporter robust z-score | Outcome |
| --- | --- | --- |
| PON3 (GeneID 5446) | -0.77 | inactive |
| PON3 (GeneID 5446) | 1.13 | inactive |
| PON3 (GeneID 5446) | 1.81 | inactive |
| PON3 (GeneID 5446) | 0.05 | inactive |
| ADIRF (GeneID 10974) | -1.55 | active |
| ADIRF (GeneID 10974) | -1.1 | inactive |
| ADIRF (GeneID 10974) | -1.53 | active |
| ADIRF (GeneID 10974) | -1.56 | active |
| BICRA (GeneID 29998) | -0.01 | inactive |
| BICRA (GeneID 29998) | 1.07 | inactive |
| BICRA (GeneID 29998) | -0.36 | inactive |
| BICRA (GeneID 29998) | 1.05 | inactive |
| RBM4 (GeneID 5936) | 0.79 | inactive |
| RBM4 (GeneID 5936) | -0.07 | inactive |
| RBM4 (GeneID 5936) | 0.37 | inactive |
| RBM4 (GeneID 5936) | -0.71 | inactive |
| PLEKHG4 (GeneID 25894) | -1.32 | inactive |
| PLEKHG4 (GeneID 25894) | 0.59 | inactive |
| PLEKHG4 (GeneID 25894) | -0.78 | inactive |
| PLEKHG4 (GeneID 25894) | 0.1 | inactive |
| MAPK1IP1L (GeneID 93487) | -0.85 | inactive |
| MAPK1IP1L (GeneID 93487) | 0.2 | inactive |
| MAPK1IP1L (GeneID 93487) | 1.01 | inactive |
| MAPK1IP1L (GeneID 93487) | -0.13 | inactive |
| CYP2C19 (GeneID 1557) | -0.41 | inactive |
| CYP2C19 (GeneID 1557) | -0.97 | inactive |
| CYP2C19 (GeneID 1557) | -0.98 | inactive |
| CYP2C19 (GeneID 1557) | 0.28 | inactive |
| CYC1 (GeneID 1537) | -0.53 | inactive |
| CYC1 (GeneID 1537) | 0.56 | inactive |
| CYC1 (GeneID 1537) | 0 | inactive |
| CYC1 (GeneID 1537) | -0.74 | inactive |
| NPVF (GeneID 64111) | 1.36 | inactive |
| NPVF (GeneID 64111) | 0.91 | inactive |
| NPVF (GeneID 64111) | 0.48 | inactive |
| NPVF (GeneID 64111) | 1.99 | inactive |
| OR7D2 (GeneID 162998) | -0.53 | inactive |
| OR7D2 (GeneID 162998) | -0.67 | inactive |
| OR7D2 (GeneID 162998) | -0.73 | inactive |
| OR7D2 (GeneID 162998) | 0.37 | inactive |
| PRR20A (GeneID 122183) | -1.08 | inactive |
| PRR20A (GeneID 122183) | 1.21 | inactive |
| PRR20A (GeneID 122183) | 0.61 | inactive |
| PRR20A (GeneID 122183) | 1.02 | inactive |
| GALNT6 (GeneID 11226) | 0.52 | inactive |
| GALNT6 (GeneID 11226) | 1.01 | inactive |
| GALNT6 (GeneID 11226) | 1.38 | inactive |
| GALNT6 (GeneID 11226) | 2.16 | inactive |
